Experimental data from US11214533B2 (Dow Global Technologies LLC, priority 2017, dated 2022).

Tested on: activated sludge biosolids
Experiment: OECD Guideline No. 301F Manometric Respirometry ready biodegradability test

Compound: Nc1ccccc1 [Positive Controls, aniline]
- BD (%) at 10-d Window (1st batch run): 115 ± 20%
- BD (%) at Day 28 (1st batch run): 137 ± 4%
- Time to Achieve 10% BD (1st batch run, onset of biodegradation (10% DO2)): 3.0 days
- Time to Achieve 60% BD (1st batch run, pass level (60% DO2)): 5.1 days
- BD at 10-d Window (second batch run): 81.0 ± 0.9%
- BD at Day 28 (second batch run): 90.4 ± 3.1%
- Time to Achieve 10% BD (second batch run): 1.0 days
- Time to Achieve 60% BD (second batch run): 3.0 days
